Reference: PubChem BioAssay AID1347076 (National Center for Advancing Translational Sciences (NCATS), 2019)
Out of some 400,000 compounds screened, about 13,000 (3.2%) were called active. This list was built around the results that the source calls inconclusive (neither active nor inactive); the mix of calls is not that of the screen. Calls come from the whole dose curve; as a rule, active = well fitted cell-killing curve with a large enough effect; inconclusive = small, poorly fitted or top-dose-only effect, or effect the other way; inactive = flat fitted curve, though single readings scatter. Potencies beside an inconclusive call are fits to weak or partial responses and may not hold up.

Assay: qHTS assay for MDR1-selective chemotherapeutics: Primary screen using the drug-selected MDR subline cells KB-V1; note: nearly all actives have a fitted effect of over 60% in size
Details: KB-V1 MDR cells viability, CellTiter-Glo, 72 h; activity change, negative = cytotoxicity: at 46.1 µM (top of the series)
In short: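 Drug-selected KB-V1 cells, grown in DMEM lacking phenol red with 10% FBS, receive compound titrations; after three days at 37 degrees C, surviving cell ATP is quantified by CellTiter-Glo luminescence and responses normalized and curve-fitted.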
% is set by controls: 0 for no effect and ±100 for the full control effect; potency is the fitted concentration of half-maximal effect.

**Q.** Which Potency does the source give for `Cc1ccccc1N(C(=O)Cc1c[nH]c2ccccc12)C(C(=O)NC1CCCCC1)c1ccco1` (stereo unspecified) here?
**A.** inconclusive: 7.31 µM [cytotoxic, partial curve, poor fit]

**Q.** For `COc1ccc(-n2c(SCC(=O)Nc3ccc(C(N)=O)cc3)nc3c([nH]c4ccccc43)c2=O)cc1OC`, which Potency is on record?
**A.** inconclusive: 29.1 µM [rising, single point]

**Q.** With `COc1ccc(C)cc1NC(=O)N1CCCn2nc(C)cc21` as the molecule, how does the Potency read?
**A.** inconclusive: 14.6 µM [rising, partial curve]

**Q.** For `Cc1ccc(C(=O)O)cc1N1C(=O)c2cccc3c([N+](=O)[O-])ccc(c23)C1=O`, which Potency is on record?
**A.** inactive

**Q.** With `COc1cc2c(cc1NC(=O)COC(=O)/C=C/c1ccccc1)oc1ccccc12` as the molecule, how does the Potency read?
**A.** inconclusive: 29.1 µM [cytotoxic, single point]

**Q.** With `CC(=O)c1ccc(/C=C/c2nc3ccccc3n2C)o1` as the molecule, how does the Potency read?
**A.** inactive

**Q.** Which Potency does the source give for `CCN(CC(=O)Nc1ccc(Br)cc1)C(=O)c1nc2nc(C)cc(C)n2n1` here?
**A.** inactive

**Q.** Which Potency does the source give for `COC(=O)c1ccc(-c2nc3ccccc3[nH]2)cc1` here?
**A.** active: 18.4 µM

**Q.** Which Potency does the source give for `COc1cc2c(=O)n(CCc3ccccc3)c(=O)n(CC(=O)Nc3ccccc3)c2cc1OC` here?
**A.** inactive

**Q.** For `O=C(O)C1=C[C@H](c2ccccc2)C[C@H](OCc2ccc(CO)cc2)O1`, which Potency is on record?
**A.** inconclusive: 18.4 µM [rising, single point]

**Q.** For `O=C(c1ccco1)N1CCN(C(=O)c2ccc(COc3ccc(Cl)cc3Cl)o2)CC1`, which Potency is on record?
**A.** inconclusive: 11.6 µM [cytotoxic, partial curve]

**Q.** For `COc1ccc(NS(=O)(=O)c2ccc3oc(SC)nc3c2)cc1`, which Potency is on record?
**A.** inconclusive: 16.4 µM [cytotoxic, single point]

**Q.** For `CC(=O)c1cccc(NC(=S)NC(=O)c2cccc(C)c2)c1`, which Potency is on record?
**A.** active: 18.4 µM

**Q.** With `CC1C(c2ccccc2)N(C)C(c2ccccc2)CC1(O)c1ccccc1` (stereo unspecified) as the molecule, how does the Potency read?
**A.** inactive

**Q.** With `Cc1cc(C)c2cc(CN(CCO)Cc3nnnn3Cc3ccc(F)cc3)c(=O)[nH]c2c1` as the molecule, how does the Potency read?
**A.** inconclusive: 16.4 µM [cytotoxic, single point]

**Q.** For `O=C(c1cc(Cl)ccc1O)N1CCN(S(=O)(=O)Cc2ccccc2)CC1`, which Potency is on record?
**A.** inconclusive: 23.1 µM [cytotoxic, single point]

**Q.** With `Clc1ccc(-c2nc(N3CCCCC3)nc3ccccc23)cc1` as the molecule, how does the Potency read?
**A.** inactive

**Q.** For `COC(=O)c1nc(-c2ccc(C)cc2)oc1N(C)C`, which Potency is on record?
**A.** inconclusive: 18.4 µM [cytotoxic, single point]

**Q.** For `Cc1ccc(Cn2nnc3c(=O)n(CC(=O)NCc4ccccc4)cnc32)cc1`, which Potency is on record?
**A.** inactive

**Q.** With `CCc1ccc(OCC2c3cc(OC)c(OC)cc3CCN2C(=O)COc2ccccc2)cc1` (stereo unspecified) as the molecule, how does the Potency read?
**A.** inactive

**Q.** With `O=[N+]([O-])c1cnn(-c2nc(-c3ccccc3)cc(C(F)(F)F)n2)c1` as the molecule, how does the Potency read?
**A.** inactive

**Q.** For `Cc1ccc(CCNC(=O)C2CCN(Cc3nc(-c4ccccc4C)oc3C)CC2)cc1`, which activity change, negative = cytotoxicity is on record?
**A.** inconclusive: -31.2% [cytotoxic]

**Q.** For `Cc1cccc(CN2C(=O)N/C(=C/c3ccc(C)s3)C2=O)c1`, which Potency is on record?
**A.** active: 14.6 µM

**Q.** For `COc1ccc(CN2C(=O)CCC2(C)c2nnnn2Cc2ccccc2)cc1OC` (stereo unspecified), which Potency is on record?
**A.** inconclusive: 18.4 µM [cytotoxic, single point]

**Q.** Which Potency does the source give for `Cc1ccc(N(Cc2cc(=O)[nH]c3ccccc23)C(=O)c2ccco2)cc1` here?
**A.** inconclusive: 29.1 µM [cytotoxic, single point]

**Q.** With `O=C(NC(=S)NC1CCCCCCCCCCC1)c1cccnc1` as the molecule, how does the Potency read?
**A.** inactive

**Q.** For `O=C(CSc1nc(Nc2ccccc2)nc(N2CCOCC2)n1)NC1CCCCC1`, which Potency is on record?
**A.** inconclusive: 2.91 µM [cytotoxic, full curve]

**Q.** Which Potency does the source give for `CCOc1ccc(CCNC(=O)c2cc3c(-c4ccc(OC)c(OC)c4)nn(C)c3s2)cc1OCC` here?
**A.** active: 23.1 µM

**Q.** Which Potency does the source give for `CSc1nc2c(c(=O)n1Cc1ccccc1)SC(C)C2` (stereo unspecified) here?
**A.** inconclusive: 23.1 µM [cytotoxic, partial curve]

**Q.** With `CCOC(=O)C1=CN(C)C=C(C(=O)OCC)C1c1ccsc1` as the molecule, how does the Potency read?
**A.** inconclusive: 35.5 µM [cytotoxic, single point]

**Q.** For `O=C(NC(c1ccccc1)C(Cl)(Cl)Cl)c1ccccc1` (stereo unspecified), which Potency is on record?
**A.** inconclusive: 14.6 µM [cytotoxic, partial curve]

**Q.** Which Potency does the source give for `CC(C)(CO)NCc1cccc(OCc2ccc(Cl)cc2)c1` here?
**A.** inconclusive: 14.6 µM [cytotoxic, partial curve]

**Q.** For `CC(C)C[C@@H](CN1CCC[C@@H]1CN1C(=S)NC[C@@H]1Cc1ccc(O)cc1)N1C[C@H](Cc2ccc(O)cc2)N(CC2CCCCC2)C1=S`, which Potency is on record?
**A.** inconclusive: 29.1 µM [cytotoxic, single point]

**Q.** For `COc1ccc(-n2nc(C(=O)Nc3cccc(C)n3)c3c4ccccc4n(C)c3c2=O)cc1Cl`, which activity change, negative = cytotoxicity is on record?
**A.** inconclusive: -20.1%

**Q.** Which Potency does the source give for `O=C(CNc1ccccc1)N/N=C/c1ccc([N+](=O)[O-])o1` here?
**A.** inconclusive: 9.2 µM [cytotoxic, partial curve, poor fit]

**Q.** With `C#CCn1c(=NC(=O)c2cc(Cl)sc2Cl)sc2cc(S(N)(=O)=O)ccc21` as the molecule, how does the Potency read?
**A.** inconclusive: 20.6 µM [cytotoxic, partial curve, poor fit]

**Q.** Which Potency does the source give for `O=C1CC(/C=C/c2ccccc2)=Nc2ccccc2N1` here?
**A.** inconclusive: 25.9 µM [rising, single point]

**Q.** With `CCOC(OCC)c1cn(Cc2ccc(C(=O)c3ccccc3)cc2)nn1` as the molecule, how does the Potency read?
**A.** inconclusive: 14.6 µM [cytotoxic, partial curve, poor fit]

**Q.** Which Potency does the source give for `CC(C)(C)OC(=O)N1CCC(c2c(C(=O)NCCN3CCC(Cc4ccccc4)CC3)cnn2-c2ccc(F)cc2)CC1` here?
**A.** inconclusive: 29.1 µM [cytotoxic, single point]

**Q.** Which Potency does the source give for `O=C(CSCc1cc(=O)c2cc(F)ccc2[nH]1)Nc1ccccc1Cl` here?
**A.** inconclusive: 20.6 µM [rising, single point]

**Q.** For `Cc1ccc(S(=O)(=O)N2CCCCC2CCNC(=O)C(=O)NCc2cccnc2)cc1` (stereo unspecified), which Potency is on record?
**A.** inconclusive: 20.6 µM [cytotoxic, single point]

**Q.** For `Cc1ccc(NC(=O)CS(=O)CC(=O)N(c2ccccc2)C(C)C(=O)NC2CCCC2)cc1` (stereo unspecified), which Potency is on record?
**A.** inconclusive: 16.4 µM [cytotoxic, partial curve, poor fit]

**Q.** With `COC(=O)c1cccc(Nc2nc(-c3cccnc3)nc3ccccc23)c1` as the molecule, how does the Potency read?
**A.** inconclusive: 23.1 µM [cytotoxic, partial curve, poor fit]

**Q.** Which Potency does the source give for `CCC(C)(C)n1nnnc1C(c1ccccc1)N1CCc2ccccc2C1` (stereo unspecified) here?
**A.** inconclusive: 18.4 µM [cytotoxic, single point]

**Q.** With `COc1ccc2[nH]c(=O)c(CN(Cc3cccs3)Cc3nnnn3C(C)(C)C)cc2c1` as the molecule, how does the Potency read?
**A.** inconclusive: 23.1 µM [cytotoxic, partial curve, poor fit]

**Q.** With `Cc1cc2ccccn2c1C(=O)c1nc(NCc2ccco2)ncc1Cl` as the molecule, how does the Potency read?
**A.** inconclusive: 29.1 µM [cytotoxic, single point]

**Q.** For `CC(NC(=O)Cc1cccs1)C(c1cccs1)N1CCOCC1` (stereo unspecified), which Potency is on record?
**A.** inconclusive: 25.9 µM [cytotoxic, single point]

**Q.** For `COc1cccc(CNC(=O)CC(NC(=O)c2ccccc2)c2ccccc2)c1` (stereo unspecified), which Potency is on record?
**A.** inconclusive: 9.2 µM [cytotoxic, partial curve]

**Q.** Which Potency does the source give for `COc1ccccc1NC(=O)CSc1nnc(-c2ccoc2C)o1` here?
**A.** inconclusive: 23.1 µM [cytotoxic, partial curve, poor fit]

**Q.** Which Potency does the source give for `CCOc1ccc(N(CC(=O)NCCSCc2ccccc2)S(=O)(=O)c2ccccc2)cc1` here?
**A.** inactive

**Q.** Which Potency does the source give for `O=C1NC2(CCCCCC2)C(=O)N1Cc1ccc([N+](=O)[O-])cc1` here?
**A.** inconclusive: 23.1 µM [cytotoxic, partial curve, poor fit]

**Q.** Which Potency does the source give for `CCc1c(C)nc2cc(-c3ccc(OC)c(OC)c3)nn2c1NCC1CC1` here?
**A.** active: 5.17 µM

**Q.** Which Potency does the source give for `CC(C)n1nccc1NC(=O)Nc1ccccc1` here?
**A.** inactive

**Q.** Which Potency does the source give for `COc1ccc(C2=NN(C(=O)CSc3ncccn3)C(c3ccc(C)cc3)C2)cc1` (stereo unspecified) here?
**A.** active: 23.1 µM

**Q.** With `CCCCNC(=O)C1=C(N)C(C(=O)Nc2ccc(C)c(S(=O)(=O)N3CCCCC3)c2)SC1=Nc1ccc(C)cc1C` (stereo unspecified) as the molecule, how does the Potency read?
**A.** inconclusive: 11.6 µM [cytotoxic, partial curve, poor fit]

**Q.** Which Potency does the source give for `Cc1ccc2[nH]c(CSc3nnc(NC(=O)c4ccc(Cl)cc4)s3)cc(=O)c2c1` here?
**A.** inconclusive: 23.1 µM [rising, single point]

**Q.** With `O=C(Nc1ccccc1)OCc1cc(-c2ccccc2Cl)on1` as the molecule, how does the Potency read?
**A.** inactive

**Q.** With `C/C(=N/Nc1ccc([N+](=O)[O-])cc1)c1ccc(C)cc1C` as the molecule, how does the Potency read?
**A.** inconclusive: 18.4 µM [cytotoxic, single point]

**Q.** For `COc1ccc(C(=O)Nc2ccccc2-c2nnn(CC(=O)Nc3ccc4c(c3)OCCO4)n2)cc1`, which Potency is on record?
**A.** inconclusive: 2.06 µM [cytotoxic, partial curve, poor fit]

**Q.** With `COc1ccc(N2C3=C(C(=O)CC(C)(C)C3)C(c3ccccc3OC)C3=C2CC(C)(C)CC3=O)cc1` as the molecule, how does the Potency read?
**A.** inconclusive: 29.1 µM [cytotoxic, single point]

**Q.** Which Potency does the source give for `Cc1ccc(Cn2cccc(NC(=O)c3ccco3)c2=O)cc1` here?
**A.** inconclusive: 23.1 µM [cytotoxic, single point]

**Q.** With `O=C1CCSC2(C(=O)N(Cc3ccc(F)cc3)c3ccccc32)N1c1ccc(F)c(F)c1` (stereo unspecified) as the molecule, how does the Potency read?
**A.** inactive

**Q.** For `O=C(CCl)N1N=C(c2ccco2)CC1c1ccco1` (stereo unspecified), which Potency is on record?
**A.** inconclusive: 0.0046 µM [cytotoxic, full curve, poor fit]

**Q.** For `CCOc1ccccc1N(CC(=O)N1CCc2ccccc2C1)S(=O)(=O)c1ccccc1`, which Potency is on record?
**A.** inactive

**Q.** Which Potency does the source give for `CCOC(=O)C[C@@H]1OC[C@H](CO)N1S(=O)(=O)c1ccc(C)cc1` here?
**A.** inactive

**Q.** Which Potency does the source give for `O=S(=O)(Nc1cccc(-c2ccc(N3CCCCCC3)nn2)c1)c1cccc(F)c1` here?
**A.** inconclusive: 14.6 µM [cytotoxic, partial curve]
